Data as given in PubChem BioAssay AID1259308 (NCATS, 2017)
Shown is one part, drawn at random, of about 59,000 deposited reagents. About 1,510 of them (2.6%) were called active. 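Calls use total luciferase alone and ignore viability, so some active siRNAs may act by altering cell number.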 A number with no mark means an inactive call. Not all columns of the deposit are shown. Reagent sequences are not shown.

Test: 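Candidate targets for better recombinant protein yield in mammalian cells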 (primary screen)
Cell system: human HEK293 embryonic kidney cells stably expressing firefly luciferase (HEK-CMV-Luc2-Hygro)
Reagents: single siRNA against human genes, 0.8 pmol siRNA per well
Duration: 72 h
Measurement: 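Reporter luminescence and viable-cell signal on separate replicate plates, given as percent of non-targeting control and median/MAD z-scores, plus per-cell luciferase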
Scale: total luciferase, z-score: higher = more reporter protein produced
Call rule: 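An siRNA counts as active if its total luciferase robust z-score exceeds 3; genes with two or more such siRNAs out of three were retested with fresh siRNAs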
Meaning of the calls: active = raised luciferase; inactive = no rise

Gene	PubChem SID	total luciferase, z-score
LNP1 (leukemia NUP98 fusion partner 1)	SID160765084	0.51
LNP1 (leukemia NUP98 fusion partner 1)	SID160765085	-0.536
LNP1 (leukemia NUP98 fusion partner 1)	SID160765086	0.987
JKAMP (JNK1/MAPK8 associated membrane protein)	SID160740943	-1.08
JKAMP (JNK1/MAPK8 associated membrane protein)	SID160740944	-1.52
JKAMP (JNK1/MAPK8 associated membrane protein)	SID160740945	-0.802
ATG12 (autophagy related 12)	SID160721573	0.272
ATG12 (autophagy related 12)	SID160721574	0.581
ATG12 (autophagy related 12)	SID160721575	-0.538
ZDHHC24 (zDHHC palmitoyltransferase 24)	SID160730891	-1.77
ZDHHC24 (zDHHC palmitoyltransferase 24)	SID160762192	0.354
ZDHHC24 (zDHHC palmitoyltransferase 24)	SID160762193	-1.08
ATP11AUN (ATP11A upstream neighbor lncRNA)	SID160766935	-2
ATP11AUN (ATP11A upstream neighbor lncRNA)	SID160766937	1.29
ATP11AUN (ATP11A upstream neighbor lncRNA)	SID160766938	-0.626
SPEN (spen family transcriptional repressor)	SID160735033	-0.563
SPEN (spen family transcriptional repressor)	SID160735042	-0.884
SPEN (spen family transcriptional repressor)	SID160735053	-1.33
ADCY6 (adenylate cyclase 6)	SID160714082	0.0591
ADCY6 (adenylate cyclase 6)	SID160714093	2.51
ADCY6 (adenylate cyclase 6)	SID160714103	2.07
ABCC9 (ATP binding cassette subfamily C member 9)	SID160724743	2.42
ABCC9 (ATP binding cassette subfamily C member 9)	SID160724747	0.32
ABCC9 (ATP binding cassette subfamily C member 9)	SID160724754	-0.595
TMPRSS12 (transmembrane serine protease 12)	SID160762934	0.177
TMPRSS12 (transmembrane serine protease 12)	SID160762936	0.0608
TMPRSS12 (transmembrane serine protease 12)	SID160762937	0.451
SH3BP2 (SH3 domain binding protein 2)	SID160716666	1.71
SH3BP2 (SH3 domain binding protein 2)	SID160716667	-0.0164
SH3BP2 (SH3 domain binding protein 2)	SID160716668	0.737
HES7 (hes family bHLH transcription factor 7)	SID160732030	-0.636
HES7 (hes family bHLH transcription factor 7)	SID160752554	-0.846
HES7 (hes family bHLH transcription factor 7)	SID160752555	0.468
PRSS37 (serine protease 37)	SID160757461	-3.14
PRSS37 (serine protease 37)	SID160757462	0.755
PRSS37 (serine protease 37)	SID160757463	0.332
ZNF517 (zinc finger protein 517)	SID160764418	-1.41
ZNF517 (zinc finger protein 517)	SID160764419	0.753
ZNF517 (zinc finger protein 517)	SID160764420	-0.249
CCDC70 (coiled-coil domain containing 70)	SID160735030	-0.775
CCDC70 (coiled-coil domain containing 70)	SID160751118	0.00521
CCDC70 (coiled-coil domain containing 70)	SID160751119	1.63
DCTN2 (dynactin subunit 2)	SID160728686	-1.69
DCTN2 (dynactin subunit 2)	SID160728687	-0.361
DCTN2 (dynactin subunit 2)	SID160728688	-0.787
LMAN1 (lectin, mannose binding 1)	SID160776657	-0.783
LMAN1 (lectin, mannose binding 1)	SID160776658	1.07
LMAN1 (lectin, mannose binding 1)	SID160776660	-1.15
UPRT (uracil phosphoribosyltransferase homolog)	SID160757712	-1.15
UPRT (uracil phosphoribosyltransferase homolog)	SID160757713	-0.583
UPRT (uracil phosphoribosyltransferase homolog)	SID160757714	1.49
GEM (GTP binding protein overexpressed in skeletal muscle)	SID160770411	-0.493
GEM (GTP binding protein overexpressed in skeletal muscle)	SID160770414	-0.731
GEM (GTP binding protein overexpressed in skeletal muscle)	SID160770421	-0.533
MCM10 (minichromosome maintenance 10 replication initiation factor)	SID160743665	-0.145
MCM10 (minichromosome maintenance 10 replication initiation factor)	SID160743666	0.427
MCM10 (minichromosome maintenance 10 replication initiation factor)	SID160743667	1.2

7 consecutive entries already listed, for reference:
Gene	PubChem SID	total luciferase, z-score
PRSS37 (serine protease 37)	SID160757462	0.755
PRSS37 (serine protease 37)	SID160757463	0.332
ZNF517 (zinc finger protein 517)	SID160764418	-1.41
ZNF517 (zinc finger protein 517)	SID160764419	0.753
ZNF517 (zinc finger protein 517)	SID160764420	-0.249
CCDC70 (coiled-coil domain containing 70)	SID160735030	-0.775
CCDC70 (coiled-coil domain containing 70)	SID160751118	0.00521
